Drawing on PubChem BioAssay AID2685 (National Center for Advancing Translational Sciences (NCATS), 2010), this text covers cell number change and AC50 for 16 compounds.

This is one part of the list. The main result of the screen is listed elsewhere. These columns were measured beside it and carry no call. The list favours compounds with an active or inconclusive main result. Potencies come from curve fits of mixed quality, noted in brackets.

This experiment in a line: qHTS Assay for Lipid Storage Modulators in Drosophila S3 Cells.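 On cell number change: cells counted by Cell Tracker Red CMTPX staining in the red channel.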 As to conditions: BODIPY lipid droplet fluorescence, 18-24 h; for cell number change: measured here: cell count max response, cells fed with added oleic acid. The method in brief:
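Laser-scanning cytometry quantifies lipid droplet accumulation (500–530 nm total intensity; droplet/cell object ratio) in oleic acid-fed (400 uM added) Drosophila S3 cells treated with a concentration series. 20 uM Triacsin C defined 100% inhibition.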

Setting [1] is: measured here: lipid fluorescence (Fed channel) AC50, cells fed with added oleic acid.
The mark [2] stands for this setting: measured here: cell number channel AC50, cells fed with added oleic acid.

For orientation: AC50 means the concentration at which the activity in the assay is half-maximal. A lower AC50 goes with activity at low concentration. For the compound `COc1ccc(/C=C(/NC(=O)c2ccccc2)C(=O)N2CCCCC2)cc1`, the cell number change was 1.47%. Moreover, the AC50 under setting [1] is 4.61 µM [rising, full curve].

For `Oc1cccc2ccc(/C=C/c3ccccc3Br)nc12`, the cell number change was -8.38%. For the same compound, the half-maximal activity concentration (AC50) under setting [1] is 0.00517 µM [rising, full curve, poor fit].

Regarding `COc1ccc(C(C)(C)C)cc1NC(=O)COC(=O)C1=NNC(=O)CC1`, the cell number change was -5.36%. In addition, the AC50 under setting [1] is 16.4 µM [rising, partial curve].

For the compound `O=C(Nc1ccccc1)Nc1cnccn1`, the cell number change was -21%.

Take `COc1ccccc1NC(=O)CCSc1nc(C)cc(C)n1`: the cell number change turned out to be 8.95%. Moreover, the half-maximal activity concentration (AC50) under setting [1] is 2.06 µM [rising, partial curve].

`N#C/C(=C\N1CCOCC1)c1ccccc1`: the concentration at half-maximal activity (AC50) under setting [1] was 0.116 µM [falling, full curve, poor fit].

On to `CCCc1c(O)nc(SCC(=O)NCCc2ccc(OC)c(OC)c2)[nH]c1=O`, for which the cell number change was -159%. Also, the AC50 under setting [2] is 29.1 µM [falling, partial curve].

In the case of `CCCCN1C(=O)c2ccc(C(=O)Nc3ccc(S(=O)(=O)N(C)C)cc3)cc2C1=O`, the cell number change is -83.3%. Further, under setting [2], the half-maximal activity concentration (AC50) was 18.4 µM [falling, single point]. The half-maximal activity concentration (AC50) under setting [1] was 4.11 µM [falling, partial curve].

Take `COCCN(Cc1cc2cc(C)ccc2n2nnnc12)C(=S)Nc1cccc(C)c1`: the cell number change was found to be 33.4%. The AC50 under setting [1] is 1.84 µM [rising, partial curve, poor fit].

Take `O=S(=O)(c1ccc2ccccc2c1)N1CCN(C(=S)Nc2ccc(F)cc2)CC1`: the cell number change was -13.3%.

In the case of `O=C(c1ccccc1)[C@H]1CC=CC[C@H]1C(=O)O`, the cell number change was -61.8%. Also, under setting [2], the AC50 is 20.6 µM [falling, single point]. The AC50 under setting [1] is 29.1 µM [falling, single point].

As to `Brc1ccc(-c2noc(COc3ccc4ccccc4c3)n2)o1`, the cell number change was 50.6%. The AC50 under setting [2] is 1.84 µM [rising, full curve]. In addition, the AC50 under setting [1] was 2.06 µM [rising, partial curve].

Take `O=C(O)c1ccc(Nc2nc(-c3ccccc3)c3ccccc3n2)cc1`: the cell number change amounted to 11.3%. In addition, the AC50 under setting [1] is 0.58 µM [falling, single point].

Consider `Cc1cc(NCCO)c2cc(O)ccc2n1`, for which the cell number change is -13%. Besides, the AC50 under setting [1] was 0.146 µM [falling, full curve, poor fit].

For `CCNc1nc(NCC)n2c(SCC(=O)N(CC)C3CCCCC3)nnc2n1`, the cell number change was found to be 22.4%. The AC50 under setting [2] was 1.84 µM [rising, partial curve, poor fit]. In addition, under setting [1], the half-maximal activity concentration (AC50) is 1.3 µM [rising, full curve, poor fit].

Take `COc1ccc(-c2nc3c(c4nnc(SC(C)C(=O)Nc5ccc(C)cc5)n24)COC(C)(C)C3)cc1` (stereo not drawn): the cell number change is 2.2%. The AC50 under setting [1] was 0.146 µM [rising, full curve, poor fit].
